From publication PMC10550967, “Structure of the ceramide-bound SPOTS complex” (Nature Communications, 2023)
Results are given in words; binding and its absence hold for the method and conditions named. Binding seen in cells or lysates may run through a third protein. Here binding means that the protein was enriched with, or labelled near, the bait; the list need not be complete. For some assays here: A no says only that the protein was not detected with the bait. For some assays here: Sequences can lack the tags named with a protein.

The chains behind the UniProt entries cited, without tags or fusion partners.
UniProt P53224: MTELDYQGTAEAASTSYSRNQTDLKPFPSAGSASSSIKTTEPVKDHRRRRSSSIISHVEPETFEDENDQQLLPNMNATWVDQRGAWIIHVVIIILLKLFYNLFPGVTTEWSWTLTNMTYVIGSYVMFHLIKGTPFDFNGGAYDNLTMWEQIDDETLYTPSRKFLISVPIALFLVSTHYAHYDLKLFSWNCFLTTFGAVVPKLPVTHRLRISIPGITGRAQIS

Tests used:
[1] = target: T1, ALFA-Sac1 (S. cerevisiae) (UniProt P32368); experiment: affinity purification with mass spectrometry; ALFA beads, S. cerevisiae lysate in 20 mM HEPES pH 7.4, 150 mM KOAc, 5% glycerol, 1% GDN, 4 °C; label free proteomics against untagged control cells
T1 sequence: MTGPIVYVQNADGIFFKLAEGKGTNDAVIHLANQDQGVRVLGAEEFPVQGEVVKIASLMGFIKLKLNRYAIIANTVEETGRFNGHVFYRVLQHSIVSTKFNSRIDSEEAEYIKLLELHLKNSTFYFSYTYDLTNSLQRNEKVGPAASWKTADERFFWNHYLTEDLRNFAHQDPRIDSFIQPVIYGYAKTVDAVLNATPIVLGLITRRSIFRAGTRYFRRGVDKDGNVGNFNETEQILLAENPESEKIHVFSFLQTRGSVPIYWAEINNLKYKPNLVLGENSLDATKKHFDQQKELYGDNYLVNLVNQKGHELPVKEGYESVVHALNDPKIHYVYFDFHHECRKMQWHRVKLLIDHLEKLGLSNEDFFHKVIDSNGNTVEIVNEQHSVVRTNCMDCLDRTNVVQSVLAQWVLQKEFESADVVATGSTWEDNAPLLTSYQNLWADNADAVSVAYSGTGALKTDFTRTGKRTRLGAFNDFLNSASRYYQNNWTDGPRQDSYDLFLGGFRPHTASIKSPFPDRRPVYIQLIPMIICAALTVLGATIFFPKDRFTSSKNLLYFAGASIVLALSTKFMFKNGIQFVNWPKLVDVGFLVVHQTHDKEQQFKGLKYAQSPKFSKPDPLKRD

[2] = target: T2, D. discoideum GFP-Sac1 (D. discoideum) (UniProt Q55AW9); experiment: affinity purification with mass spectrometry; GFP-Trap beads, D. discoideum lysate in 20 mM HEPES pH 7.4, 150 mM KOAc, 5% glycerol, 1% GDN, 4 °C; label free proteomics against control cells
T2 sequence: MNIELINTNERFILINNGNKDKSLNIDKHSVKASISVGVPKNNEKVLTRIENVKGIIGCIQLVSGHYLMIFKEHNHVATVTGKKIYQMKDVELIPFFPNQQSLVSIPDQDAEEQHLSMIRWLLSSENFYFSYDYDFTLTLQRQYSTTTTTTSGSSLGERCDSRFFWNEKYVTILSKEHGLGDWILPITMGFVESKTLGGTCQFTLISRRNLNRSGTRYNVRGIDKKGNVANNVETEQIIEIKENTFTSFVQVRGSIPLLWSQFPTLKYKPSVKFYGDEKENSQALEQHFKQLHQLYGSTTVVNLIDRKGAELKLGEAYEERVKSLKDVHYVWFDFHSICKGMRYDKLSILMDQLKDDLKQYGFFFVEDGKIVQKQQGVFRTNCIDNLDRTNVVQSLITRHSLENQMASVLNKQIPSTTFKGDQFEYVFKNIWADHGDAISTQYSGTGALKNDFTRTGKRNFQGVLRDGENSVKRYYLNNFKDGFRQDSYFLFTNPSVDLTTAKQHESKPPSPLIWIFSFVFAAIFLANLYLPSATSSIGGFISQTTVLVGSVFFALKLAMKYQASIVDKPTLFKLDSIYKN

[3] = target: ALFA-sac1Δ574 (S. cerevisiae); experiment: affinity purification with mass spectrometry; ALFA beads, S. cerevisiae lysate in 20 mM HEPES pH 7.4, 150 mM KOAc, 5% glycerol, 1% GDN, 4 °C; label free proteomics against untagged control cells

Orm1 (from UniProt P53224 1-222)
binding [1]: binds

Orm1-like protein 2
binding [2]: binds

B1: Orm2 (protein, UniProt Q06144 1-216)
chain: MIDRTKNESPAFEESPLTPNVSNLKPFPSQSNKISTPVTDHRRRRSSSVISHVEQETFEDENDQQMLPNMNATWVDQRGAWLIHIVVIVLLRLFYSLFGSTPKWTWTLTNMTYIIGFYIMFHLVKGTPFDFNGGAYDNLTMWEQINDETLYTPTRKFLLIVPIVLFLISNQYYRNDMTLFLSNLAVTVLIGVVPKLGITHRLRISIPGITGRAQIS
binding [1]: binds
binding [3]: no binding

B2: sptA (enzyme, UniProt Q55FL5 1-479)
chain: MFLFDIYNNILYYTKEFIVTSTSPNLFIHGLMAVFIIYLLTKRPFKPRQNDTLTKAEEDELIREWSPIPLTPKSNPLEVLNQTELIIQESEGTHVTINNKKYLNLARSNYLGLINNPEINKISENAIRKYGVGSCGPRGFYGTIDVHLDLEKKTASFMKTPEAVLYSSAYATISSAIPSFSKIGDIIIVDRGVSQPVQVGVSLSRSRIYYFNHNDMDDLQRVLEQTQFKGSKAKIVRKFVVIEGLYYNSGTIAPLPQILKFKEQYKFRLIMDESHSVGVLGSTGRGLTEHYNIDTNLVDILTGSYGNSFSSGGGFCCGSPEVVYHQRLNGVGYVFSASLPPFLACSSTKAIEMLEENPKMLEMLHSNIGELYQGLNKSGALNGLLEITSLPISPVIHLSLLDSKSNKSNRINDELLLQKIVDKAMDYGLLLTRAKYVSAEKFIPKPSIRISVSSNLSSDQIKQSIEIIKKCTSFVLESN
binding [2]: binds

B3: sptB (enzyme, UniProt Q54EX5 1-490)
chain: MEDKEDVENVDDVGYLPILFLYIAYAFIIFNGKLAEFIGKLKGERYLHTPEGYAPLFVEFEYFYQRRMYGRIKDAWDRPINSIAGAWIDVMPRASKHYSQRLELTGGKTIKCLNLGSYNYLGFAQNEGPVADKVIDSIYKYGVYTGSTSAEVGLSEPQRDLENLTARFVGKEDAIVFEMGFATNSGTLPALIGKGGLIISDSLNHASLATGCKNTGCKVKVFRHNDSKHLEEVIRESIIQGQPRTHRPWTMILIIIEGIYSMEGEVANLPEILAIKKKYKCYLYIDEAHSIGALGKTGRGIVDYYGIDPKEIDILMGTYTKSFGAIGGYVASDKSLIDHLRQSSFSQVYANSMSPVCAVQALEALRVIMGEDGTDTGAKKLKQLHDNSNYFREKIREMGFVILGNKDSPVIPLMLFNPAKLSAFSRLCLEKHIAVVVVGYPATPLTEPRTRFCISASHTIEDLDWALRQIDEIGDLITLKFHKGKYLKSK
binding [2]: binds

B4: Lcb1 (enzyme, UniProt P25045 1-558)
chain: MAHIPEVLPKSIPIPAFIVTTSSYLWYYFNLVLTQIPGGQFIVSYIKKSHHDDPYRTTVEIGLILYGIIYYLSKPQQKKSLQAQKPNLSPQEIDALIEDWEPEPLVDPSATDEQSWRVAKTPVTMEMPIQNHITITRNNLQEKYTNVFNLASNNFLQLSATEPVKEVVKTTIKNYGVGACGPAGFYGNQDVHYTLEYDLAQFFGTQGSVLYGQDFCAAPSVLPAFTKRGDVIVADDQVSLPVQNALQLSRSTVYYFNHNDMNSLECLLNELTEQEKLEKLPAIPRKFIVTEGIFHNSGDLAPLPELTKLKNKYKFRLFVDETFSIGVLGATGRGLSEHFNMDRATAIDITVGSMATALGSTGGFVLGDSVMCLHQRIGSNAYCFSACLPAYTVTSVSKVLKLMDSNNDAVQTLQKLSKSLHDSFASDDSLRSYVIVTSSPVSAVLHLQLTPAYRSRKFGYTCEQLFETMSALQKKSQTNKFIEPYEEEEKFLQSIVDHALINYNVLITRNTIVLKQETLPIVPSLKICCNAAMSPEELKNACESVKQSILACCQESNK
binding [1]: binds
binding [3]: no binding

B5: Lcb2 (enzyme, UniProt P40970 1-561)
chain: MSTPANYTRVPLCEPEELPDDIQKENEYGTLDSPGHLYQVKSRHGKPLPEPVVDTPPYYISLLTYLNYLILIILGHVHDFLGMTFQKNKHLDLLEHDGLAPWFSNFESFYVRRIKMRIDDCFSRPTTGVPGRFIRCIDRISHNINEYFTYSGAVYPCMNLSSYNYLGFAQSKGQCTDAALESVDKYSIQSGGPRAQIGTTDLHIKAEKLVARFIGKEDALVFSMGYGTNANLFNAFLDKKCLVISDELNHTSIRTGVRLSGAAVRTFKHGDMVGLEKLIREQIVLGQPKTNRPWKKILICAEGLFSMEGTLCNLPKLVELKKKYKCYLFIDEAHSIGAMGPTGRGVCEIFGVDPKDVDILMGTFTKSFGAAGGYIAADQWIIDRLRLDLTTVSYSESMPAPVLAQTISSLQTISGEICPGQGTERLQRIAFNSRYLRLALQRLGFIVYGVADSPVIPLLLYCPSKMPAFSRMMLQRRIAVVVVAYPATPLIESRVRFCMSASLTKEDIDYLLRHVSEVGDKLNLKSNSGKSSYDGKRQRWDIEEVIRRTPEDCKDDKYFVN
binding [1]: binds
binding [3]: no binding

B6: Tsc3 (protein, UniProt Q3E790 1-80)
chain: MTQHKSSMVYIPTTKEAKRRNGKSEGILNTIEEVVEKLYWTYYIHLPFYLMASFDSFFLHVFFLTIFSLSFFGILKYCFL
binding [3]: no binding
